{"source": "patent US20050144671A1", "about": "(ARIZONA BD OF REGENTS BEHALF OF UNIV OF ARIZONA, published 2005)", "binders": {"B1": {"name": "Full-length Snow1 cloned in pACT2 vector (prey vector) (protein, not shown: large carriers)", "chain": "MGRAPCCEKMGLKRGPWTPEEDQILVSFILNHGHSNWRALPKQAGLLRCGKSCRLRWMNYLKPDIKRGNFTKEEEDAIISLHQILGNRWSAIAAKLPGRTDNEIKNVWHTHLKKRLEDYQPAKPKTSNKKKGTKPKSESVITSSNSTRSESELADSSNPSGESLFSTSPSTSEVSSMTLISHDGYSNEINMDNKPGDISTIDQECVSFETFGADIDESFWKETLYSQDEHNYVSNDLEVAGLVEIQQEFQNLGSANNEMIFDSEMELLVRCIGICE"}, "B2": {"name": "GST-fused Snow1 (protein, not shown: a dimerising Fc or GST)", "chain": "MGRAPCCEKMGLKRGPWTPEEDQILVSFILNHGHSNWRALPKQAGLLRCGKSCRLRWMNYLKPDIKRGNFTKEEEDAIISLHQILGNRWSAIAAKLPGRTDNEIKNVWHTHLKKRLEDYQPAKPKTSNKKKGTKPKSESVITSSNSTRSESELADSSNPSGESLFSTSPSTSEVSSMTLISHDGYSNEINMDNKPGDISTIDQECVSFETFGADIDESFWKETLYSQDEHNYVSNDLEVAGLVEIQQEFQNLGSANNEMIFDSEMELLVRCIGICE"}, "B3": {"name": "S-tag-Ice1 (full-length Ice1 cloned in pCITE4a, in vitro translated) (protein, not shown: small tags and cut ends)", "chain": "MGLDGNNGGGVWLNGGGGEREENEEGSWGRNQEDGSSQFKPMLEGDWFSSNQPHPQDLQMLQNQPDFRYFGGFPFNPNDNLLLQHSIDSSSSCSPSQAFSLDPSQQNQFLSTNNNKGCLLNVPSSANPFDNAFEFGSESGFLNQIHAPISMGFGSLTQLGNRDLSSVPDFLSARSLLAPESNNNNTMLCGGFTAPLELEGFGSPANGGFVGNRAKVLKPLEVLASSGAQPTLFQKRAAMRQSSGSKMGNSESSGMRRFSDDGDMDETGIEVSGLNYESDEINESGKAAESVQIGGGGKGKKKGMPAKNLMAERRRRKKLNDRLYMLRSVVPKISKMDRASILGDAIDYLKELLQRINDLHNELESTPPGSLPPTSSSFHPLTPTPQTLSCRVKEELCPSSLPSPKGQQARVEVRLREGRAVNIHMFCGRRPGLLLATMKALDNLGLDVQQAVISCFNGFALDVFRAEQCQEGQEILPDQIKAVLFDTAGYAGMI"}, "B4": {"name": "Myc-Ice1 (protein, not shown: small tags and cut ends)", "chain": "MGLDGNNGGGVWLNGGGGEREENEEGSWGRNQEDGSSQFKPMLEGDWFSSNQPHPQDLQMLQNQPDFRYFGGFPFNPNDNLLLQHSIDSSSSCSPSQAFSLDPSQQNQFLSTNNNKGCLLNVPSSANPFDNAFEFGSESGFLNQIHAPISMGFGSLTQLGNRDLSSVPDFLSARSLLAPESNNNNTMLCGGFTAPLELEGFGSPANGGFVGNRAKVLKPLEVLASSGAQPTLFQKRAAMRQSSGSKMGNSESSGMRRFSDDGDMDETGIEVSGLNYESDEINESGKAAESVQIGGGGKGKKKGMPAKNLMAERRRRKKLNDRLYMLRSVVPKISKMDRASILGDAIDYLKELLQRINDLHNELESTPPGSLPPTSSSFHPLTPTPQTLSCRVKEELCPSSLPSPKGQQARVEVRLREGRAVNIHMFCGRRPGLLLATMKALDNLGLDVQQAVISCFNGFALDVFRAEQCQEGQEILPDQIKAVLFDTAGYAGMI"}}, "key": {"[1]": {"molecular_target": "T1, C-terminal region (corresponding to 266-494 amino acids) of Ice1 cloned in pAS2 vector (bait vector) (Arabidopsis) (UniProt Q9LSE2)", "T1 sequence": "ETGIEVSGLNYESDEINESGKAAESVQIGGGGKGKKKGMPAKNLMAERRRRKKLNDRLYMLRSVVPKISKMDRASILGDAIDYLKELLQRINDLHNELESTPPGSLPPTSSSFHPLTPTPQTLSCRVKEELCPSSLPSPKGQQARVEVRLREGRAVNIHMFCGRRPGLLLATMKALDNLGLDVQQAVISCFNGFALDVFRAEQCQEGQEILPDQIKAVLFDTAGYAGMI", "test": "yeast two-hybrid, beta-Gal activity"}, "[2]": {"molecular_target": "T2, Region corresponding to 358-494 amino acids of Ice1, deletion of the C-terminal portion cloned in pAS2 vector (bait) (Arabidopsis) (UniProt Q9LSE2)", "T2 sequence": "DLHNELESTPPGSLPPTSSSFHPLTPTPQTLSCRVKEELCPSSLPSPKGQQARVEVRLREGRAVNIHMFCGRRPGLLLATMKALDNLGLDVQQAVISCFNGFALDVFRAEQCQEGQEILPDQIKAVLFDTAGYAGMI", "test": "yeast two-hybrid, beta-Gal activity"}, "[3]": {"molecular_target": "T1, C-terminal region (corresponding to 266-494 amino acids) of Ice1 cloned in pAS2 vector (bait vector) (Arabidopsis)", "test": "yeast two-hybrid"}, "[4]": {"molecular_target": "T2, Region corresponding to 358-494 amino acids of Ice1, deletion of the C-terminal portion cloned in pAS2 vector (bait) (Arabidopsis)", "test": "yeast two-hybrid"}, "[5]": {"molecular_target": "T3, S-tag-Ice1 (full-length Ice1 cloned in pCITE4a, in vitro translated) (Arabidopsis) (UniProt Q9LSE2)", "T3 sequence": "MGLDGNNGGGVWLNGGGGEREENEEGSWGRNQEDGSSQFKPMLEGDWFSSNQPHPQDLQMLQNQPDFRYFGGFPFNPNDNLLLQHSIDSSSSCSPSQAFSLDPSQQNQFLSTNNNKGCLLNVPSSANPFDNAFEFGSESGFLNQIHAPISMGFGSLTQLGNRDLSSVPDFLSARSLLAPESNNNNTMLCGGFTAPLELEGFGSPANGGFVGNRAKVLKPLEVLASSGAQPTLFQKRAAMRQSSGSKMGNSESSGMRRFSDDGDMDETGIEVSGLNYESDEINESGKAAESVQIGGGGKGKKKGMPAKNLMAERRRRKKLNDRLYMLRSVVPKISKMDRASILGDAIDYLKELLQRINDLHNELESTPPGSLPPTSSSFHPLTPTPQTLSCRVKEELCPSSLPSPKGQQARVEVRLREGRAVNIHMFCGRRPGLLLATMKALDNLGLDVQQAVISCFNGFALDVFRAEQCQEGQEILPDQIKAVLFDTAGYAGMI", "test": "in vitro GST pull-down"}, "[6]": {"molecular_target": "T3, S-tag-Ice1 (full-length Ice1 cloned in pCITE4a, in vitro translated) (Arabidopsis)", "test": "in vitro GST pull-down, autoradiography"}, "[7]": {"molecular_target": "T4, 35S-labeled Snow1 (full-length snow1 in pGEM-T easy, in vitro transcribed and translated) (Arabidopsis) (UniProt Q9LTC4)", "T4 sequence (chain, 35S-methionine label)": "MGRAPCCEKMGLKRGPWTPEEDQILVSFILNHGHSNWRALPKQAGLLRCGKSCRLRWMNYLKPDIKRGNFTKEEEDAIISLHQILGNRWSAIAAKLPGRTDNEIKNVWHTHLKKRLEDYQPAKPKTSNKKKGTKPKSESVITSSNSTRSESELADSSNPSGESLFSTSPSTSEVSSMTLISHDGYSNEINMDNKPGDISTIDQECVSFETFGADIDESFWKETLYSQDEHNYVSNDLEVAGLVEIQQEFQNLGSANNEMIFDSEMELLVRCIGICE", "test": "in vitro S-tag pull-down"}, "[8]": {"molecular_target": "T4, 35S-labeled Snow1 (full-length snow1 in pGEM-T easy, in vitro transcribed and translated) (Arabidopsis)", "test": "in vitro S-tag pull-down, autoradiography"}, "[9]": {"molecular_target": "T5, HA-Snow1 (Arabidopsis) (UniProt Q9LTC4)", "T5 sequence": "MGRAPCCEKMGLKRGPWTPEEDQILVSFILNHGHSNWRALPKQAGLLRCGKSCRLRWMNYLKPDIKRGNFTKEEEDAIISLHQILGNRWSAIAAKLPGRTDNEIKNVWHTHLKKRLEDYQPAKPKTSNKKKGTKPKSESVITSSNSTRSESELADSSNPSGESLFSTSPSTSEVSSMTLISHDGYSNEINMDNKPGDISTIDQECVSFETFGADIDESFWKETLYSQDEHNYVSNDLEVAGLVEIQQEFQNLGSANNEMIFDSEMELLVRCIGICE", "test": "co-immunoprecipitation from Arabidopsis protoplasts with anti c-Myc antibodies, blot probed with anti HA antibodies"}}, "note": "These are yes or no findings as the source states them, for the method shown. For part of these data: In cells and extracts the contact can be indirect. Some results given as binding are weak or reduced against the parent protein; the word gives no strength. For part of these data: Where a sequence is shown, tags or fusion partners need not be part of it.", "data": [{"binder": "B1", "values": [{"measurement": "binding", "setting": "[1]", "result": "binds"}, {"measurement": "binding", "setting": "[2]", "result": "binds"}, {"measurement": "binding", "setting": "[3]", "result": "binds"}, {"measurement": "binding", "setting": "[4]", "result": "binds"}]}, {"binder": "B2", "values": [{"measurement": "binding", "setting": "[5]", "result": "binds"}, {"measurement": "binding", "setting": "[6]", "result": "binds"}]}, {"binder": "B3", "values": [{"measurement": "binding", "setting": "[7]", "result": "binds"}, {"measurement": "binding", "setting": "[8]", "result": "binds"}]}, {"binder": "B4", "values": [{"measurement": "binding", "setting": "[9]", "result": "binds"}]}]}
